Patent US5616562A, “Methods and compositions using substance P to promote wound healing” (priority 1994, dated 1997)
Like-named read-outs stand apart in the source and are kept apart here. Not every detail of the peptide structures is certain; ends, links or a residue may be inferred.

Tested on: epithelial cells
Assay: SP analogs and fragment: stimulation of DNA synthesis / cell growth
Type: cell-based
Method: Several SP analogs were also tested for their ability to stimulate DNA synthesis. An SP analog where norleucine is substituted for methionine at the C-terminus was tested (Nle-SP). Norleucine is a structural analog of methionine where the sulfur is replaced with a CH2 group.

CCCC[C@H](NC(=O)[C@H](CC(C)C)NC(=O)CNC(=O)[C@H](Cc1ccccc1)NC(=O)[C@H](Cc1ccccc1)NC(=O)[C@H](CCC(N)=O)NC(=O)[C@H](CCC(N)=O)NC(=O)[C@@H]1CCCN1C(=O)[C@H](CCCCN)NC(=O)[C@@H]1CCCN1C(=O)[C@@H](N)CCCNC(=N)N)C(N)=O [Nle-SP]
ability to stimulate DNA synthesis relative to SP: more active than SP | ability to stimulate DNA synthesis relative to SP (listed as substitution peptide where norleucine has been substituted for the C-terminus me): enhanced activity
